Holding throughout (test): log2 fold change, soluble protein after heating vs DMSO (PISA); higher = thermal stabilisation; K562 cells, 10 uM, 30 min; active = over 0.2 and 3.5 SD of the protein, either way, in both replicates (recomputed)
Compound in experiment [1]: COC1=CC=C(C=C1)CN2C=CC3=C2C=C(C=C3)C(=O)NO
The essentials:
(§1)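 Quantification of soluble protein used TMTpro 16plex LC-MS/MS, with channel sums equalised. Samples were the supernatant after 21,000xg for 90 min of pooled aliquots from K562 cells (2×10^6 cells/mL) treated with 10 μM compound for 30 min, heated for 3 min over 48°C-58°C, and extracted in PBS with 0.5% NP-40 at 4°C. Values, from duplicates, describe thermal stability against control samples on a log2 fold-change scale.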

Sequences of proteins named here, by UniProt entry; tags and fusion partners are left off. A change or cut given only in a name is not applied to a line headed by its entry.
UniProt Q9H9V9: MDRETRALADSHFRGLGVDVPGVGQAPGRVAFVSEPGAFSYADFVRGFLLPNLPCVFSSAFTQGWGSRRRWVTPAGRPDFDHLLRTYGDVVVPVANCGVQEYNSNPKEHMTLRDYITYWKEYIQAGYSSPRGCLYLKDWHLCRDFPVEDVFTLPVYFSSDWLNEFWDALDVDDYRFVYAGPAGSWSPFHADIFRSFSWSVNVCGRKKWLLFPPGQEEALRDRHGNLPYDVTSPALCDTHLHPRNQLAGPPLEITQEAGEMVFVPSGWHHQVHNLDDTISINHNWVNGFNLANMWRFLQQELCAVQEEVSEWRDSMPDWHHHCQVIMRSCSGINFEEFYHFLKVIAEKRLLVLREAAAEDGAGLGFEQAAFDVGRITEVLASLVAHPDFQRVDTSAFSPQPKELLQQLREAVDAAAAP
UniProt Q8WVZ9: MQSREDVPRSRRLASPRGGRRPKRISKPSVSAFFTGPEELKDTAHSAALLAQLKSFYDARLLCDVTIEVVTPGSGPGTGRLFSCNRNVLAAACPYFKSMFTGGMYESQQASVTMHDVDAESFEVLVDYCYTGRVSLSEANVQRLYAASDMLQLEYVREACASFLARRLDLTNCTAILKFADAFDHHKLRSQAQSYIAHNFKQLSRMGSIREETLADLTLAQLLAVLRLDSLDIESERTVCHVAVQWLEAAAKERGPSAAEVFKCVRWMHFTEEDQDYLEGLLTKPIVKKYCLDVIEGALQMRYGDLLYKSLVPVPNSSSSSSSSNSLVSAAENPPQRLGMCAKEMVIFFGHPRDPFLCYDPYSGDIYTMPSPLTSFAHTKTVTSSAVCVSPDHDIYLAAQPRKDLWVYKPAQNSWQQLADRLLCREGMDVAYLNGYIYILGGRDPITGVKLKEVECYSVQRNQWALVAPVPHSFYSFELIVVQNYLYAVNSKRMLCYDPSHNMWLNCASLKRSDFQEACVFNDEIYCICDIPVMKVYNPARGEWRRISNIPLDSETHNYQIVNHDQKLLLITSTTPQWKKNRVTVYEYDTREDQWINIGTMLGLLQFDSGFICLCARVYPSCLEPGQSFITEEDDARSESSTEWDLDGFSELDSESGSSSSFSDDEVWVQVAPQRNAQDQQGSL
UniProt P24390: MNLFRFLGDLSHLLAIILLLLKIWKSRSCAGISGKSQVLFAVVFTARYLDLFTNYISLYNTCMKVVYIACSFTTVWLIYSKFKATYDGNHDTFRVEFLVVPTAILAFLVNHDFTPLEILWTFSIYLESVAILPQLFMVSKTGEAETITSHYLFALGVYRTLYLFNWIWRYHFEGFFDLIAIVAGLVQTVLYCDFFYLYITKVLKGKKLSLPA
UniProt Q13351: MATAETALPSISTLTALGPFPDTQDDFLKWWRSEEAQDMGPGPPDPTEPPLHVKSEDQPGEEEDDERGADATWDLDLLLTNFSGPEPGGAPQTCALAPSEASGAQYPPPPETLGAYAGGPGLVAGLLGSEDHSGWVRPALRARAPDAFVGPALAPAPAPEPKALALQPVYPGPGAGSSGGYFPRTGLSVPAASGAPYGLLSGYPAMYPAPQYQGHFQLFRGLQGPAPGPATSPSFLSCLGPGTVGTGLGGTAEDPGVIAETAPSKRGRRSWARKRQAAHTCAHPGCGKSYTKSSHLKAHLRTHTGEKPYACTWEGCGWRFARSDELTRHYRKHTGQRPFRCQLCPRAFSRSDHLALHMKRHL
UniProt Q2M2Z5: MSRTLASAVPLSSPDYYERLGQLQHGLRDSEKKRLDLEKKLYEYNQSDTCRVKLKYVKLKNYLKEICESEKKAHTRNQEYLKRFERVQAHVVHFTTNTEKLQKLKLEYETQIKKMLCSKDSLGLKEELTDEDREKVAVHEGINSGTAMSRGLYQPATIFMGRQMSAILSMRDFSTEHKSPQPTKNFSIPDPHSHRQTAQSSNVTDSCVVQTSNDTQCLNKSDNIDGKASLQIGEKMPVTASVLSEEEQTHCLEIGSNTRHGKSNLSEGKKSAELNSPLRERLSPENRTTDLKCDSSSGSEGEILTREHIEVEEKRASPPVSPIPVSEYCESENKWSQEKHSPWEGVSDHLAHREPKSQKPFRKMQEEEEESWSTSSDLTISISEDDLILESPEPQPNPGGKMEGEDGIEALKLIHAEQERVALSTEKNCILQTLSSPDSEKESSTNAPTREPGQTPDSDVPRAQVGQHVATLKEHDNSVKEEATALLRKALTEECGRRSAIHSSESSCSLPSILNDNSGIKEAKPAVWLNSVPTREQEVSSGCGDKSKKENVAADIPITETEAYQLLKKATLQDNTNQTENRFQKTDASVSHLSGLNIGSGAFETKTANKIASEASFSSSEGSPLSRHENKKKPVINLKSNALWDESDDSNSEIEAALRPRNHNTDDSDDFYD
UniProt Q9BVG8: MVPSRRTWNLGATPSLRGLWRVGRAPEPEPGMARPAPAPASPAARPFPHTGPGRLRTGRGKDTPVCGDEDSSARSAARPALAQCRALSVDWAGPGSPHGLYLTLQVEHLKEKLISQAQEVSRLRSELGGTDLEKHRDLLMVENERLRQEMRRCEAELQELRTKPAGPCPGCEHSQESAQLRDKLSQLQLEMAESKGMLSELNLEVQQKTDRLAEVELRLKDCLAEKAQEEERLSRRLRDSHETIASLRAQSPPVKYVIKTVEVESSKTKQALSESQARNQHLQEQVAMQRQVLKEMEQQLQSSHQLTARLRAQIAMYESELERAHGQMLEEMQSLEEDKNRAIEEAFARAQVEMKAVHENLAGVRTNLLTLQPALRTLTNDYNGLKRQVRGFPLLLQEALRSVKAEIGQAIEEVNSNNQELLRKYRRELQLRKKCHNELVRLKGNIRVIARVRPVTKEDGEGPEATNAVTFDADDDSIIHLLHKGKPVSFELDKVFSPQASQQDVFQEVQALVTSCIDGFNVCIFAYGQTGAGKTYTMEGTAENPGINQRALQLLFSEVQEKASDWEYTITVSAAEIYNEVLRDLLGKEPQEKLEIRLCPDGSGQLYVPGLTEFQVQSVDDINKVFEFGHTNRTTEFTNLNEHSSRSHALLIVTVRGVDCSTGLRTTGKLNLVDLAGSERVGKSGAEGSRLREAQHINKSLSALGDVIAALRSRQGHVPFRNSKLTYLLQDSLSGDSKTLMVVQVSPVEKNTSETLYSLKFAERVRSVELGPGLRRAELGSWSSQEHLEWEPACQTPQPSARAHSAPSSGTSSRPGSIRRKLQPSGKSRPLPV
UniProt Q9H079: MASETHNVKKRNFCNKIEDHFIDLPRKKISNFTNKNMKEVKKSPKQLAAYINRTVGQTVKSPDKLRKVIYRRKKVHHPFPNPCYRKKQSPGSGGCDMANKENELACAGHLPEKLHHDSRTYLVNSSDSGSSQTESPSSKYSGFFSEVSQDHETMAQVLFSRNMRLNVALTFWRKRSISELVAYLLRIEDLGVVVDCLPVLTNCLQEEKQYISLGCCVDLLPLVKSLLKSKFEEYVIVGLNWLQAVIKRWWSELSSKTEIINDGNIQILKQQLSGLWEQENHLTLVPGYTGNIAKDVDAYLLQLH
UniProt Q6P597: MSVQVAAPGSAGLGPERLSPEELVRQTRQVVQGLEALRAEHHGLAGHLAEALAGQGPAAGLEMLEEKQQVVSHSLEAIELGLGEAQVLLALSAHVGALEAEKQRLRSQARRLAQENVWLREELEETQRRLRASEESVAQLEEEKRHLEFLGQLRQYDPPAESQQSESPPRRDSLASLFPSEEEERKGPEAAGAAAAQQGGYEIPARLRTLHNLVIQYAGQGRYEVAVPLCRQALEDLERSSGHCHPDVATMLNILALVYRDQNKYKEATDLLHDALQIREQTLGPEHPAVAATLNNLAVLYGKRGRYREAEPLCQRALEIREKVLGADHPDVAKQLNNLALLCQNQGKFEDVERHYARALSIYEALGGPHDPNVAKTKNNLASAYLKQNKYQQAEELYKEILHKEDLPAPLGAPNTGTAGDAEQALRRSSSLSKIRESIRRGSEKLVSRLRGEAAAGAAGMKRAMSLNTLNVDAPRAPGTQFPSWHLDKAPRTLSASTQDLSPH
UniProt P05412, whole entry, looked up: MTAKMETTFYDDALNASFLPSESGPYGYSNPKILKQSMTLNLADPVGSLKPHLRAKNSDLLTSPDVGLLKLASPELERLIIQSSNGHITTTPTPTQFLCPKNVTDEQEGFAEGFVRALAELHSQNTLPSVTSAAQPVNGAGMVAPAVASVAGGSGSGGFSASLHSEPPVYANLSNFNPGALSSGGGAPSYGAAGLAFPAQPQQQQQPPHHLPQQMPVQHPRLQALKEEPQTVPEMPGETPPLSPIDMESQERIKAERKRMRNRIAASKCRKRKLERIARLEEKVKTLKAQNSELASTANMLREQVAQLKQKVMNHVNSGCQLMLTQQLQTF
UniProt O94889: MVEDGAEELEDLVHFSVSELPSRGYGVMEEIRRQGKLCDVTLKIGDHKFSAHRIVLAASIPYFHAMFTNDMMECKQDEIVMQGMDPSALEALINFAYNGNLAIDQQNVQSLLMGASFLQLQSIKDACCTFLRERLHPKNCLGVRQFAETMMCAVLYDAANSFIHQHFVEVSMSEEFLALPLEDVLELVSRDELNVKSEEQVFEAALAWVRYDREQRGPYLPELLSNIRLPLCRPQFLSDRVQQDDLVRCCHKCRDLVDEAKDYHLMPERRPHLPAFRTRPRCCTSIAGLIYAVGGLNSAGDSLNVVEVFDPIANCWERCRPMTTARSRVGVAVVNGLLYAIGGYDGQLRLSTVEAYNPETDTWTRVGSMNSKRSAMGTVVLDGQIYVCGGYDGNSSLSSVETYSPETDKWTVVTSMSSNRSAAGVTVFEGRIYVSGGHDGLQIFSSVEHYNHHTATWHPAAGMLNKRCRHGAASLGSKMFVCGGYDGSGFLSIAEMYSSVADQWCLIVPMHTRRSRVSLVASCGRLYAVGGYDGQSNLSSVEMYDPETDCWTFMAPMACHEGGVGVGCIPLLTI

Compound in experiment [2]: CON(C)C(=O)N1N=C(c2cc(F)ccc2F)S[C@@]1(CCCN)c1ccccc1 [filanesib]
Put shortly: as §1

Compound in experiment [3]: COc1cc(C(=O)O)ccc1NC(=O)[C@@H]1N[C@@H](CC(C)(C)C)[C@](C#N)(c2ccc(Cl)cc2F)[C@H]1c1cccc(Cl)c1F [idasanutlin]
The essentials:
as §1

Compound in experiment [4]: COc1cc2nc(-c3cc(F)ccc3O)nc(N[C@@H]3CNC[C@H]3C(C)(C)O)c2cc1OC
The essentials: as §1

Compound in experiment [5]: COc1cc2ncnc(Nc3ccc(F)c(Cl)c3)c2cc1OCCCN1CCOCC1 [gefitinib]
The essentials: as §1

Compound in experiment [6]: CS(=O)(=O)CCNCc1ccc(-c2ccc3ncnc(Nc4ccc(OCc5cccc(F)c5)c(Cl)c4)c3c2)o1 [lapatinib]
The essentials: as §1

Compound in experiment [7]: CS(=O)(=O)c1ccc(-c2cnc(N)c(C(=O)Nc3ccccc3)n2)cc1
The essentials: as §1

Compound in experiment [8]: C[C@@H](Oc1cc(-c2cnn(C3CCNCC3)c2)cnc1N)c1c(Cl)ccc(F)c1Cl [crizotinib]
The essentials: as §1

Compound in experiment [9]: C[C@H](Nc1ncnc2nc[nH]c12)c1cc2cccc(Cl)c2c(=O)n1-c1ccccc1 [duvelisib]
Put shortly:
as §1

Compound in experiment [10]: Cc1cc(SCc2sc(-c3ccc(C(F)(F)F)cc3)nc2C)ccc1OCC(=O)O
Put shortly:
as §1

Compound in experiment [11]: Cc1ccc(-n2nc(C(C)(C)C)cc2NC(=O)Nc2ccc(OCCN3CCOCC3)c3ccccc23)cc1 [doramapimod]
The essentials: as §1

Compound in experiment [12]: CS(=O)(=O)N1CCN(Cc2cc3nc(-c4cccc5[nH]ncc45)nc(N4CCOCC4)c3s2)CC1 [pictilisib]
Put shortly: as §1

Compound in experiment [13]: Cc1cc(Nc2cc(CN3CCOCC3)c3nc(C)c(Cc4ccc(Cl)cc4F)n3n2)n[nH]1 [gandotinib]
The essentials: as §1

Compound in experiment [14]: COc1cc(Nc2ncc3c(n2)-c2ccc(Cl)cc2C(c2c(F)cccc2OC)=NC3)ccc1C(=O)O [alisertib]
Put shortly: as §1

Compound in experiment [15]: COc1cccc2cc(-c3nc([C@H]4CC[C@H](C(=O)O)CC4)n4ncnc(N)c34)[nH]c12
Put shortly: as §1

Compound in experiment [16]: C[C@@H]1COCCN1C2=NC(=NC(=C2)C3(CC3)S(=O)(=O)C)C4=C5C=CNC5=CC=C4
The essentials: as §1

Compound in experiment [17]: Cc1cc(Nc2cc(N3CCN(C)CC3)nc(Sc3ccc(NC(=O)C4CC4)cc3)n2)n[nH]1 [tozasertib]
The essentials: as §1

Compound in experiment [18]: Cc1ccc(C(=O)N(CCCN)[C@@H](c2nc3cc(Cl)ccc3c(=O)n2Cc2ccccc2)C(C)C)cc1 [ispinesib]
Put shortly: as §1

Compound in experiment [19]: CO[C@H]1C[C@@H]2CC[C@@H](C)[C@@](O)(O2)C(=O)C(=O)N2CCCC[C@H]2C(=O)O[C@H]([C@H](C)C[C@@H]2CC[C@H](n3cnnn3)[C@H](OC)C2)CC(=O)[C@H](C)/C=C(\C)[C@@H](O)[C@@H](OC)C(=O)[C@H](C)C[C@H](C)/C=C/C=C/C=C/1C [zotarolimus]
The essentials: as §1

Compound in experiment [20]: C[C@H](C1=CC=C(C=C1)C(=O)NC2=C3C=CNC3=NC=C2)N
Put shortly:
as §1

This is one part of the list.

The text below walks through data of the supplement of paper PMC10849652.

For JMJD4 (UniProt Q9H9V9), the log2 fold change in experiment [1] is inactive: 0.091; in experiment [2], inactive: 0.159; in [3] it was inactive: -0.092; in experiment [4] it was inactive: 0.108; in [5], inactive: 0.028; in experiment [6] it was inactive: -0.026. Moreover, the log2 fold change in [7] was inactive: -0.189; in experiment [8], inactive: -0.206; in experiment [9], inactive: -0.233; in experiment [10], inactive: 0.053; in [11] it was inactive: -0.008.

Regarding KBTBD7 (UniProt Q8WVZ9), the log2 fold change in [2] is inactive: 0.143; in experiment [5], inactive: 0.129; in experiment [12] it was inactive: 0.114; in experiment [7] it was inactive: 0.365; in experiment [9], inactive: 0.032; in experiment [13], inactive: 0.031. Besides, the log2 fold change in experiment [10] was inactive: 0.211.

KDELR1 (UniProt P24390): the log2 fold change was inactive: -0.112 in experiment [1]; inactive: 0.008 in experiment [2]; inactive: -0.02 in [14]; inactive: -0.114 in experiment [4]; inactive: -0.182 in experiment [5]; inactive: -0.017 in [15]. In addition, the log2 fold change in experiment [6] was inactive: -0.02; in experiment [7], inactive: 0.126; in experiment [8], inactive: 0.063; in experiment [16], inactive: 0.222; in experiment [9], inactive: -0.044; in experiment [17] it was inactive: 0.441. Besides, the figures for the log2 fold change in experiment [10], in experiment [11] and in [18] were inactive: -0.026, inactive: -0.055 and inactive: 0.066, respectively.

As for KLF1 (UniProt Q13351), the log2 fold change in experiment [1] was inactive: 0.008; in [2], inactive: 0.072; in [14], inactive: 0.117; in [4], inactive: 0.02; in [5], inactive: -0.043; in experiment [15] it was inactive: -0.33. Moreover, the log2 fold change is inactive: -0.001 in [6]; inactive: -0.058 in experiment [12]; inactive: -0.203 in [7]; inactive: -0.003 in [8]; inactive: 0.072 in [9]; inactive: 0.069 in experiment [13]. Besides, the figures for the log2 fold change in experiment [10], in [11] and in experiment [18] were inactive: -0.192, inactive: 0.093 and inactive: -0.021, respectively.

Take KIZ (UniProt Q2M2Z5): the log2 fold change is inactive: -0.008 in [1]; inactive: 0.269 in experiment [19]; inactive: -0.019 in experiment [3]; inactive: -0.064 in experiment [4]; inactive: 0.066 in experiment [6]; inactive: -0.215 in experiment [12]. Besides, the log2 fold change in experiment [8] is inactive: -0.032; in [20], inactive: -0.115; in experiment [13] it was inactive: 0.063; in experiment [11], inactive: 0.071; in [18], inactive: -0.047.

As to KIFC3 isoform 6 (UniProt Q9BVG8), the log2 fold change in experiment [2] was inactive: 0.077; in experiment [14] it was inactive: 0.346; in experiment [5] it was inactive: 0.044; in experiment [15], inactive: 0.245; in experiment [12] it was inactive: 0.369; in [7] it was inactive: 0.112. Further, the log2 fold change in experiment [16] was inactive: 0.165; in [13] it was inactive: 0.082; in experiment [17], inactive: -0.116; in experiment [18] it was inactive: -0.27.

With KATNBL1 (UniProt Q9H079), the log2 fold change is inactive: 0.01 in experiment [2]; inactive: 0.119 in [19]; inactive: -0.088 in experiment [14]; inactive: -0.005 in experiment [4]; inactive: 0.061 in experiment [15]; inactive: 0.12 in experiment [6]. In addition, the log2 fold change was inactive: 0 in experiment [12]; inactive: 0.052 in experiment [7]; inactive: 0.128 in experiment [20]; inactive: 0.011 in [9]; inactive: -0.046 in experiment [13]; inactive: -0.008 in [17]. The figures for the log2 fold change in experiment [10] and in experiment [18] were inactive: -0.087 and inactive: 0.048, respectively.

In the case of KLC3 isoform 3 (UniProt Q6P597), the log2 fold change in experiment [2] was inactive: 0.246; in experiment [4] it was inactive: 0.136; in [6] it was inactive: -0.097; in experiment [7], inactive: 0.083; in experiment [17], inactive: 0.062.

For JUN (UniProt P05412), the log2 fold change in [2] was inactive: 0.278; in experiment [19], inactive: -0.017; in experiment [14], inactive: -0.409; in experiment [5], inactive: -0.037; in [15], inactive: 0.082; in [7], inactive: 0.141. In addition, the results for the log2 fold change in [20], in experiment [17] and in [18] were inactive: -0.049, inactive: 0.043 and inactive: -0.046, respectively.

Regarding KLHL18 (UniProt O94889), the log2 fold change in experiment [2] is inactive: 0; in experiment [19] it was inactive: 0.022; in [3], inactive: -0.048; in experiment [14] it was inactive: -0.068; in [4] it was inactive: -0.048; in experiment [5] it was inactive: 0.057. Also, the log2 fold change was inactive: 0.038 in experiment [15]; inactive: 0.071 in experiment [6]; inactive: 0.09 in experiment [12]; inactive: 0.092 in experiment [7]; inactive: 0.078 in [16]; inactive: -0.084 in [20]. The log2 fold change was active: -0.561 in [13], inactive: 0.02 in [10] and inactive: 0.028 in [18].

With KMT2A isoform 3 (UniProt Q03164), the log2 fold change is inactive: 0.187 in experiment [2]; inactive: 0.055 in [19]; inactive: -0.146 in experiment [12]; inactive: -0.04 in [7]; inactive: -0.119 in experiment [20]; inactive: -0.068 in [9]. Moreover, the log2 fold change is inactive: -0.483 in [13], inactive: 0.091 in experiment [10] and inactive: -0.016 in experiment [18].
